Source: the supplement of paper PMC10849652
The list shows a part of the results.

The chains behind the UniProt entries cited, without tags or fusion partners. Where a name states a change or a piece, a line headed by the entry shows the natural chain unless it says otherwise.
UniProt P48739: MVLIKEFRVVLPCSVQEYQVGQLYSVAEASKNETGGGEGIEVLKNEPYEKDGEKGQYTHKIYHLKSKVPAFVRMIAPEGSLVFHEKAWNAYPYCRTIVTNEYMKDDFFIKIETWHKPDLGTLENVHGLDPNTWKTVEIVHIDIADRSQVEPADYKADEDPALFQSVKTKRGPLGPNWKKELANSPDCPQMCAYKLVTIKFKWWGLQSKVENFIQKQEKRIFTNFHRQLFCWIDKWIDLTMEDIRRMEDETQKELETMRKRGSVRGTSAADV
UniProt O15173: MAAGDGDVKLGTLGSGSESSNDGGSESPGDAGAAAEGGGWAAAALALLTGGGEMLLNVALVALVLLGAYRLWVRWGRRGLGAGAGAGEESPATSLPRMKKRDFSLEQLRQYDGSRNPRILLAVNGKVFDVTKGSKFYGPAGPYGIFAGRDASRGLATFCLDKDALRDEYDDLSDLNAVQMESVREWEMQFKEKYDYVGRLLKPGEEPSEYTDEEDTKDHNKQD
UniProt P46019: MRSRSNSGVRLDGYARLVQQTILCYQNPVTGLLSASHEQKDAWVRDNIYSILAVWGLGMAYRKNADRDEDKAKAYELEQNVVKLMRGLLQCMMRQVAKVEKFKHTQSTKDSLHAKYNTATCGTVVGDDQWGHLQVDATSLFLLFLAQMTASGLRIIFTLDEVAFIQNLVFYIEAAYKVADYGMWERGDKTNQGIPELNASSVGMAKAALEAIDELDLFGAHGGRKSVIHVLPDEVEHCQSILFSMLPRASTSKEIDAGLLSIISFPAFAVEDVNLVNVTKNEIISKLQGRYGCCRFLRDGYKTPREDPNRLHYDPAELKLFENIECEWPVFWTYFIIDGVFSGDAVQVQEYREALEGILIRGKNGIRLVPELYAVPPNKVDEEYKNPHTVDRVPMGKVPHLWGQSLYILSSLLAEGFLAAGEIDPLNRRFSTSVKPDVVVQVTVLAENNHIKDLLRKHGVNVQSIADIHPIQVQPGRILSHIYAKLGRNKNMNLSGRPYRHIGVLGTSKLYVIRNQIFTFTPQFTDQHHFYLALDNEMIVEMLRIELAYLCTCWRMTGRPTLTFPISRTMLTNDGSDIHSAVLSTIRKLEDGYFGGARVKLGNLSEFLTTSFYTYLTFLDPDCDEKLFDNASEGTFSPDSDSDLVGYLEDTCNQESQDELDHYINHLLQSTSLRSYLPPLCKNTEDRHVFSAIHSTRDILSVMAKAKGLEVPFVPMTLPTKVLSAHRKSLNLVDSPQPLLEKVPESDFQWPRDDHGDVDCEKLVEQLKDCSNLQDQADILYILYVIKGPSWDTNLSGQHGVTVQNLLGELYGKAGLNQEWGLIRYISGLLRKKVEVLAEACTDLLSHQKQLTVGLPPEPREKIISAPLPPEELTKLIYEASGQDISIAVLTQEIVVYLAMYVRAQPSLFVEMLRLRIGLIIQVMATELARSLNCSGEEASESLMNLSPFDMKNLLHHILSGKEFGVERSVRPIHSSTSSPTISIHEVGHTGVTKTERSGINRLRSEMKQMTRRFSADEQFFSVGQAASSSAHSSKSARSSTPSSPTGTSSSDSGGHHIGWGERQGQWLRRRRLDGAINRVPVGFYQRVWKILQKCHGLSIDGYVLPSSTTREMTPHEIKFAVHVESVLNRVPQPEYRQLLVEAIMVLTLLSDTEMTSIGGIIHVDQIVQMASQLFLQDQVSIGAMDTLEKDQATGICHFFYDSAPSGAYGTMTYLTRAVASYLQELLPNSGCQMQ
UniProt P19174: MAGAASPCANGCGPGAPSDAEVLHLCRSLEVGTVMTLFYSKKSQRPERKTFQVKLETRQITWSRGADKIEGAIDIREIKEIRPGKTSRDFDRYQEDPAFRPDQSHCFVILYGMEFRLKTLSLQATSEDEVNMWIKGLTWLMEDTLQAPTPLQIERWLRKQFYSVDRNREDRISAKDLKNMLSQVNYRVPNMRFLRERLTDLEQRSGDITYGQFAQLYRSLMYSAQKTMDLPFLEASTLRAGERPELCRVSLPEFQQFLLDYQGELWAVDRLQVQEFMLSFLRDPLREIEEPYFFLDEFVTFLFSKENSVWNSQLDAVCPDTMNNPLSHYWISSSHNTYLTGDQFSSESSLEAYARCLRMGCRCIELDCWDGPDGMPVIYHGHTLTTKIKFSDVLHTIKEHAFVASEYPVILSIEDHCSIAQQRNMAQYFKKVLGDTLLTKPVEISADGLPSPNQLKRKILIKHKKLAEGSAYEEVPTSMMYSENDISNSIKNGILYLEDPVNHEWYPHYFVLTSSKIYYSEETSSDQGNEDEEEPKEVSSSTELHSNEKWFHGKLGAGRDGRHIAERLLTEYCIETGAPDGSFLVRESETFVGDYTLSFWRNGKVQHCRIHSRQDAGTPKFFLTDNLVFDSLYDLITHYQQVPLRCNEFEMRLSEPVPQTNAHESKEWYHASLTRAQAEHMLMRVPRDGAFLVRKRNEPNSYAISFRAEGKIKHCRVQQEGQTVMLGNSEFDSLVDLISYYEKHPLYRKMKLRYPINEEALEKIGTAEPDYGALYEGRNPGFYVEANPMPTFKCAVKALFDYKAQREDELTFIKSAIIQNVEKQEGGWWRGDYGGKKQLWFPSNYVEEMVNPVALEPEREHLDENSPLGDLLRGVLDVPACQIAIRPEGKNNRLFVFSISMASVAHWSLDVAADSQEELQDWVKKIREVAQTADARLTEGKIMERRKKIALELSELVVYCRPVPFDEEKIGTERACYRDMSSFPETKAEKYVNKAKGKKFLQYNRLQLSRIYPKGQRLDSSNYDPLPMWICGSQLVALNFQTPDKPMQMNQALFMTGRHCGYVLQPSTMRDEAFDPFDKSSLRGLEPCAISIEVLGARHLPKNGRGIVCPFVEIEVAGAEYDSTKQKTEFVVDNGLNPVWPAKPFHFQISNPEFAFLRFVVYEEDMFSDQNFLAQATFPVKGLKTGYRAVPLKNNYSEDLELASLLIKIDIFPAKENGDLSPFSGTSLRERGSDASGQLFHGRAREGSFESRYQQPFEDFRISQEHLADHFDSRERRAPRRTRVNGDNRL
UniProt Q96G03: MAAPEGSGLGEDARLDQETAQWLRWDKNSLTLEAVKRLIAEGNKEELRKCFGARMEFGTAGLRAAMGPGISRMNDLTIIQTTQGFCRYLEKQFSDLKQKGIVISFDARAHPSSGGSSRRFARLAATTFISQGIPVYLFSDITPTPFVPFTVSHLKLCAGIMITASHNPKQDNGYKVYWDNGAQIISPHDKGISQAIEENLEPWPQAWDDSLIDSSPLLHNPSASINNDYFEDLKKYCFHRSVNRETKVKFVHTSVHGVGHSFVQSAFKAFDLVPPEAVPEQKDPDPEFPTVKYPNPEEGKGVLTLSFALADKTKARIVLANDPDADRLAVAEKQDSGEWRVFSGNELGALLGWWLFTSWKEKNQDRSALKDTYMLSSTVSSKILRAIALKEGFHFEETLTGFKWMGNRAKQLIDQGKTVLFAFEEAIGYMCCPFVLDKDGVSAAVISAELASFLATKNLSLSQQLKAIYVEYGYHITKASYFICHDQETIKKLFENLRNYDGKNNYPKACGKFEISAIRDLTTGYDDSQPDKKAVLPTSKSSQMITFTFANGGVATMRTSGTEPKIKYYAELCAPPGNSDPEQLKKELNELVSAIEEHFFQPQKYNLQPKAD
UniProt Q15111: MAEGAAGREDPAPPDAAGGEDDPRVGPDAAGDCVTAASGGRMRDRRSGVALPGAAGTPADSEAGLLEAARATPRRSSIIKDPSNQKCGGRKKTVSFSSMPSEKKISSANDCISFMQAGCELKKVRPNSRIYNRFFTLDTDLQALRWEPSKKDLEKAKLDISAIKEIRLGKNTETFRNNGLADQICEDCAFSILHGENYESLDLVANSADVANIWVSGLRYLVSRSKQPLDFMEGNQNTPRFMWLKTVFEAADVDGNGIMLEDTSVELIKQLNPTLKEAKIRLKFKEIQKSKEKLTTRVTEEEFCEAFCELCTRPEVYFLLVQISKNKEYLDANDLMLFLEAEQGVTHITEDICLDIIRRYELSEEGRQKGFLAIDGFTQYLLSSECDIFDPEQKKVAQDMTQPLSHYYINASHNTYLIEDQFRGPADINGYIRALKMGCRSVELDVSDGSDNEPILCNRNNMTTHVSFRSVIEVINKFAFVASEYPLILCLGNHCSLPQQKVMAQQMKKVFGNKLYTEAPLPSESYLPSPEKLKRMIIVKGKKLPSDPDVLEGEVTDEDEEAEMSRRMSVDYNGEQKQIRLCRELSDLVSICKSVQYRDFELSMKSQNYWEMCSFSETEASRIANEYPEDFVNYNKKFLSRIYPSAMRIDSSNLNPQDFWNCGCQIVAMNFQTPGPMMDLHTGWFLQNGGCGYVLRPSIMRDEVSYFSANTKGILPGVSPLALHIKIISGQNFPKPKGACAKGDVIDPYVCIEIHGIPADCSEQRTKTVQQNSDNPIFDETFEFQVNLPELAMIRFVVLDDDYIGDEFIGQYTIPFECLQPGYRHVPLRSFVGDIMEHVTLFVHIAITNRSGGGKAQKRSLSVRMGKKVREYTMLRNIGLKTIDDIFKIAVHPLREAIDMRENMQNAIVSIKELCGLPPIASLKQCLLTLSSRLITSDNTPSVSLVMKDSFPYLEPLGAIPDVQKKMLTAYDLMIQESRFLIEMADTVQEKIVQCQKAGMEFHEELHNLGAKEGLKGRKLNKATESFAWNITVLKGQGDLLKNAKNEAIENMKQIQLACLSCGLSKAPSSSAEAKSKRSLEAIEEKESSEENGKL
UniProt Q8NEB9, whole entry, looked up: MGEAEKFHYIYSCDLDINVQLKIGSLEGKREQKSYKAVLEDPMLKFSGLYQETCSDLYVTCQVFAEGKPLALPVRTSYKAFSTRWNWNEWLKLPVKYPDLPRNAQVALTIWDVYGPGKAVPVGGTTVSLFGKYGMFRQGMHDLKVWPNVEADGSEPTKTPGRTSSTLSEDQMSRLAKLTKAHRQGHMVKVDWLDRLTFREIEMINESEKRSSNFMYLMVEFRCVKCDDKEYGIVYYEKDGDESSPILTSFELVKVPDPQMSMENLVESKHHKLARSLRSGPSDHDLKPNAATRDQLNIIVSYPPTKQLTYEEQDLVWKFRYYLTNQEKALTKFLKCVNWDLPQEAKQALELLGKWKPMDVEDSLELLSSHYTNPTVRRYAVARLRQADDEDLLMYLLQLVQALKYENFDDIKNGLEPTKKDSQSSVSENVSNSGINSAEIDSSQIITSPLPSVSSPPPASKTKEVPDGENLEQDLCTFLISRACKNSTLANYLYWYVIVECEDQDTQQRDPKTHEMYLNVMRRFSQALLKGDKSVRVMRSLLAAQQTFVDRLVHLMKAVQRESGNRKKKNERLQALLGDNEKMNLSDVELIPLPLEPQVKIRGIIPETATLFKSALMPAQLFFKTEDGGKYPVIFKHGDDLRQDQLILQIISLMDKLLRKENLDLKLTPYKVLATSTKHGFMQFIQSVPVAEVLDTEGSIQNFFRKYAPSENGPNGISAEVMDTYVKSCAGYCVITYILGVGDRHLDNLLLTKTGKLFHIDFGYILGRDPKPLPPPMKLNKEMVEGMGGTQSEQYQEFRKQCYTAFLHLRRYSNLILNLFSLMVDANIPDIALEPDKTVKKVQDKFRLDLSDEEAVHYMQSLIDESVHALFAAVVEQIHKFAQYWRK
UniProt P14618, whole entry, looked up: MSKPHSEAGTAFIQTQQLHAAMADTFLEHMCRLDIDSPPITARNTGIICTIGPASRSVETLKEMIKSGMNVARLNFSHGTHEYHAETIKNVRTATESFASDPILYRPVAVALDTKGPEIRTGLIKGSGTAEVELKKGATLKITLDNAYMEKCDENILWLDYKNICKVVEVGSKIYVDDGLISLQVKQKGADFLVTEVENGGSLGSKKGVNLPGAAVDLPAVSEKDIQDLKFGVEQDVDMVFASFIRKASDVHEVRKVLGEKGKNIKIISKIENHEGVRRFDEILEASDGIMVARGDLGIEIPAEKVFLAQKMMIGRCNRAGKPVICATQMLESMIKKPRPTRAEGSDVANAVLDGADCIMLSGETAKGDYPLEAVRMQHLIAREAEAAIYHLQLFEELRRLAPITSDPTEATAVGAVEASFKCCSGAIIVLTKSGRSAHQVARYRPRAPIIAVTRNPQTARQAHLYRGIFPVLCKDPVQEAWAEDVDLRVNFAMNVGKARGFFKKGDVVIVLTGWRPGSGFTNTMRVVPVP
UniProt Q9UG56: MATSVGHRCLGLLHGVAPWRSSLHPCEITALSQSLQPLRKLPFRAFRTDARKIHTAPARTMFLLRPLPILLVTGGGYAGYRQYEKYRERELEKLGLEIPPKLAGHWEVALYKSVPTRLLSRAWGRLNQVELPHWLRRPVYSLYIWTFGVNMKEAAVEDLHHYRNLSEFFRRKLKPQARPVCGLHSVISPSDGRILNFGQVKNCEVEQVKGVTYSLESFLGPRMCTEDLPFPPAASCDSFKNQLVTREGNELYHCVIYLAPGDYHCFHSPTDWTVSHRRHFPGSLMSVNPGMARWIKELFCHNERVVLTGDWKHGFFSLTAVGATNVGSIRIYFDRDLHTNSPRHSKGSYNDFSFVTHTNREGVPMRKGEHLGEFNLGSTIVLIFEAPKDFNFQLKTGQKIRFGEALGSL

Key:
Assay in all cases: log2 fold change, soluble protein after heating vs DMSO (PISA); higher = thermal stabilisation; K562 lysate, 10 uM; active = over 0.2 and 3.5 SD of the protein, either way, in both replicates (recomputed)
alvocidib = compound: CN1CC[C@H](c2c(O)cc(O)c3c(=O)cc(-c4ccccc4Cl)oc23)[C@H](O)C1 [alvocidib]
Procedure, shortened: (§1)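 Dounce homogenisation of K562 pellets in PBS pH 7.4 with 1 mM MgCl2 produced a crude extract, used at 1 mg/mL protein. Exposure to 10 μM compound lasted 30 min, and aliquots were then heated for 3 min across 48°C-58°C, pooled and brought to 0.5% NP-40 at 4°C. The supernatant after 21,000xg for 90 min was quantified by TMTpro 16plex LC-MS/MS with channel sums equalised. Duplicate values are given as log-two fold change in thermal stability relative to solvent controls.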

Tubastatin A = compound: CN1CCc2c(c3ccccc3n2Cc2ccc(C(=O)NO)cc2)C1 [Tubastatin A]
Procedure, shortened: as §1

[1] = compound: CNC(=O)C1=CC=CC=C1NC2=NC(=NC=C2Cl)NC3=C(C=C(C=C3)N4CCOCC4)OC
Procedure, shortened: as §1

defactinib = compound: CNC(=O)c1ccc(Nc2ncc(C(F)(F)F)c(NCc3nccnc3N(C)S(C)(=O)=O)n2)cc1 [defactinib]
Procedure, shortened: as §1

[2] = compound: CNc1nc(-c2ccc3c(N)n[nH]c3c2)cc(N2C[C@@H](C(=O)NC3CCCCC3)CC[C@H]2C)n1
Procedure, shortened: as §1

encorafenib = compound: COC(=O)N[C@@H](C)CNc1nccc(-c2cn(C(C)C)nc2-c2cc(Cl)cc(NS(C)(=O)=O)c2F)n1 [encorafenib]
Procedure, shortened: as §1

[3] = compound: COC(=O)[C@H](CCSC)NC(=O)C1=C(C=C(C=C1)NC[C@H](CS)N)C2=CC=CC=C2
Procedure, shortened: as §1

alisertib = compound: COc1cc(Nc2ncc3c(n2)-c2ccc(Cl)cc2C(c2c(F)cccc2OC)=NC3)ccc1C(=O)O [alisertib]
Procedure, shortened: as §1

[4] = compound: COc1cc2nc(-c3cc(F)ccc3O)nc(N[C@@H]3CNC[C@H]3C(C)(C)O)c2cc1OC
Procedure, shortened: as §1

gefitinib = compound: COc1cc2ncnc(Nc3ccc(F)c(Cl)c3)c2cc1OCCCN1CCOCC1 [gefitinib]
Procedure, shortened: as §1

lapatinib = compound: CS(=O)(=O)CCNCc1ccc(-c2ccc3ncnc(Nc4ccc(OCc5cccc(F)c5)c(Cl)c4)c3c2)o1 [lapatinib]
Procedure, shortened: as §1

pictilisib = compound: CS(=O)(=O)N1CCN(Cc2cc3nc(-c4cccc5[nH]ncc45)nc(N4CCOCC4)c3s2)CC1 [pictilisib]
Procedure, shortened: as §1

crizotinib = compound: C[C@@H](Oc1cc(-c2cnn(C3CCNCC3)c2)cnc1N)c1c(Cl)ccc(F)c1Cl [crizotinib]
Procedure, shortened: as §1

[5] = compound: C[C@H](C1=CC=C(C=C1)C(=O)NC2=C3C=CNC3=NC=C2)N
Procedure, shortened: as §1

duvelisib = compound: C[C@H](Nc1ncnc2nc[nH]c12)c1cc2cccc(Cl)c2c(=O)n1-c1ccccc1 [duvelisib]
Procedure, shortened: as §1

gandotinib = compound: Cc1cc(Nc2cc(CN3CCOCC3)c3nc(C)c(Cc4ccc(Cl)cc4F)n3n2)n[nH]1 [gandotinib]
Procedure, shortened: as §1

tozasertib = compound: Cc1cc(Nc2cc(N3CCN(C)CC3)nc(Sc3ccc(NC(=O)C4CC4)cc3)n2)n[nH]1 [tozasertib]
Procedure, shortened: as §1

doramapimod = compound: Cc1ccc(-n2nc(C(C)(C)C)cc2NC(=O)Nc2ccc(OCCN3CCOCC3)c3ccccc23)cc1 [doramapimod]
Procedure, shortened: as §1

bafetinib = compound: Cc1ccc(NC(=O)c2ccc(CN3CC[C@H](N(C)C)C3)c(C(F)(F)F)c2)cc1Nc1nccc(-c2cncnc2)n1 [bafetinib]
Procedure, shortened: as §1

[6] = compound: Cc1cccc(CC(=O)N2CCc3c2ccc(-c2cn(C)c4ncnc(N)c24)c3F)n1
Procedure, shortened: as §1

Target | log2 fold change (alvocidib) | log2 fold change (Tubastatin A) | log2 fold change [1] | log2 fold change (defactinib) | log2 fold change [2] | log2 fold change (encorafenib) | log2 fold change [3] | log2 fold change (alisertib) | log2 fold change [4] | log2 fold change (gefitinib) | log2 fold change (lapatinib) | log2 fold change (pictilisib) | log2 fold change (crizotinib) | log2 fold change [5] | log2 fold change (duvelisib) | log2 fold change (gandotinib) | log2 fold change (tozasertib) | log2 fold change (doramapimod) | log2 fold change (bafetinib) | log2 fold change [6]
PJA2 (UniProt O43164) | inactive: -0.002 | inactive: -0.044 | inactive: 0.034 | inactive: 0.004 | inactive: -0.004 | inactive: 0.012 | inactive: -0.058 | inactive: -0.016 | inactive: 0.004 | inactive: 0.016 | inactive: 0.019 | inactive: -0.007 | inactive: -0.046 | inactive: -0.113 | inactive: 0.033 | inactive: 0.045 | inactive: -0.084 | inactive: 0.019 | inactive: -0.031 | inactive: 0.054
PIP4K2C (UniProt Q8TBX8) | active: 0.47 | inactive: 0.022 | inactive: 0.125 | inactive: 0.092 | inactive: -0.07 | inactive: 0.139 | inactive: -0.085 | inactive: 0.013 | inactive: 0.104 | inactive: 0.083 | inactive: -0.043 | inactive: 0.063 | inactive: -0.036 | inactive: -0.128 | inactive: 0.033 | inactive: 0.109 | inactive: -0.06 | inactive: 0.006 | active: 0.664 | inactive: -0.032
PIP4K2A (UniProt P48426) | active: 0.279 | inactive: -0.048 | inactive: 0.006 | inactive: 0.065 | inactive: -0.035 | inactive: 0.141 | inactive: -0.071 | inactive: 0.01 | inactive: 0.005 | inactive: 0.037 | inactive: -0.04 | inactive: 0.032 | inactive: 0.019 | inactive: -0.089 | inactive: 0.05 | inactive: 0.109 | inactive: 0.014 | inactive: -0.035 | active: 0.301 | inactive: 0.005
PITPNB isoform 3 (UniProt P48739) | inactive: 0.001 | inactive: 0.009 | inactive: -0.014 | inactive: 0.004 | inactive: -0.055 | inactive: -0.023 | inactive: -0.008 | inactive: 0.009 | inactive: -0.013 | inactive: -0.044 | inactive: 0.013 | inactive: 0.005 | inactive: 0.023 | inactive: -0.017 | inactive: -0.006 | inactive: 0.006 | inactive: -0.007 | inactive: -0.024 | inactive: -0.054 | inactive: 0.011
PGRMC2 isoform 2 (UniProt O15173) | inactive: -0.02 | inactive: 0.049 | inactive: -0.016 | inactive: 0.021 | inactive: 0.029 | inactive: -0.007 | inactive: -0.229 | inactive: 0.024 | inactive: 0.02 | inactive: 0 | inactive: 0.016 | inactive: -0.03 | inactive: 0.003 | inactive: -0.022 | inactive: -0.007 | inactive: 0.034 | inactive: 0 | inactive: -0.015 | inactive: -0.006 | inactive: 0.002
PHKG2 (UniProt P15735) | inactive: 0.107 | inactive: -0.044 | inactive: 0.268 | inactive: 0.001 | inactive: 0.033 | inactive: -0.039 | inactive: 0.056 | inactive: -0.045 | inactive: 0.192 | inactive: 0.03 | inactive: -0.07 | inactive: -0.069 | inactive: 0.166 | inactive: 0 | inactive: -0.008 | inactive: 0.061 | inactive: -0.051 | inactive: 0.031 | inactive: 0.015 | inactive: -0.107
PGLS (UniProt O95336) | inactive: 0.177 | inactive: 0.09 | inactive: 0.061 | inactive: 0.231 | inactive: 0.016 | inactive: 0.017 | inactive: 0.019 | inactive: 0.03 | inactive: -0.087 | inactive: -0.163 | inactive: 0.068 | inactive: 0.011 | inactive: 0 | inactive: 0.206 | inactive: 0.033 | inactive: -0.084 | inactive: 0.008 | inactive: 0.004 | inactive: -0.031 | inactive: -0.14
PHKA2 (UniProt P46019) | inactive: 0.064 | inactive: -0.084 | active: 0.265 | inactive: -0.027 | inactive: 0.032 | inactive: -0.008 | inactive: 0.018 | inactive: -0.008 | inactive: 0.06 | inactive: -0.03 | inactive: -0.085 | inactive: -0.042 | inactive: 0.048 | inactive: 0.022 | inactive: -0.01 | inactive: -0.035 | inactive: -0.015 | inactive: 0.013 | inactive: -0.109 | inactive: -0.012
PLEKHA5 isoform 6 (UniProt Q9HAU0) | inactive: -0.11 | inactive: -0.074 | inactive: 0.02 | inactive: 0.065 | inactive: 0.006 | inactive: -0.016 | inactive: 0.054 | inactive: 0.035 | inactive: -0.03 | inactive: -0.039 | inactive: 0.003 | inactive: -0.054 | inactive: 0.006 | inactive: -0.033 | inactive: -0.032 | inactive: 0.093 | inactive: 0.002 | inactive: -0.028 | inactive: -0.061 | inactive: 0.002
PLCG1 isoform 2 (UniProt P19174) | inactive: -0.035 | inactive: -0.071 | inactive: 0.004 | inactive: 0.01 | inactive: -0.024 | inactive: -0.005 | inactive: -0.012 | inactive: 0.022 | inactive: -0.013 | inactive: -0.012 | inactive: 0.01 | inactive: -0.006 | inactive: -0.078 | inactive: -0.075 | inactive: 0.013 | inactive: 0.052 | inactive: 0.079 | inactive: 0.014 | inactive: -0.043 | inactive: 0.079
PGM2 (UniProt Q96G03) | inactive: -0.003 | inactive: 0.033 | inactive: -0.011 | inactive: -0.024 | inactive: -0.007 | inactive: 0 | inactive: -0.025 | inactive: -0.024 | inactive: 0.017 | inactive: -0.015 | inactive: -0.01 | inactive: 0.01 | inactive: 0.021 | inactive: 0 | inactive: 0.012 | inactive: 0.013 | inactive: -0.015 | inactive: 0.001 | inactive: 0.026 | inactive: -0.035
PLCL1 (UniProt Q15111) | inactive: -0.039 | inactive: -0.025 | inactive: 0.044 | inactive: 0.052 | inactive: 0.151 | inactive: 0.033 | inactive: 0.017 | inactive: 0.018 | inactive: -0.006 | inactive: -0.01 | inactive: -0.014 | inactive: -0.044 | inactive: -0.06 | inactive: -0.01 | inactive: 0.049 | inactive: -0.017 | inactive: -0.019 | inactive: 0.014 | inactive: 0.049 | inactive: 0.043
PIBF1 (UniProt Q8WXW3) | inactive: 0 | inactive: -0.058 | inactive: 0.02 | inactive: 0.039 | inactive: -0.089 | inactive: 0.048 | inactive: -0.146 | inactive: -0.01 | inactive: -0.158 | inactive: -0.011 | inactive: 0.089 | inactive: -0.014 | inactive: 0.002 | inactive: -0.078 | inactive: 0.001 | inactive: -0.012 | inactive: 0.07 | inactive: -0.007 | inactive: 0.025 | inactive: 0.118
PIK3C3 (UniProt Q8NEB9) | inactive: -0.081 | inactive: 0.02 | inactive: -0.019 | inactive: -0.004 | inactive: -0.046 | inactive: -0.016 | inactive: 0.015 | inactive: 0.012 | inactive: 0.048 | inactive: -0.037 | inactive: -0.066 | inactive: 0.041 | inactive: -0.009 | inactive: -0.137 | inactive: 0.107 | active: 0.272 | inactive: -0.042 | inactive: -0.005 | inactive: -0.013 | inactive: 0.133
PKM (UniProt P14618) | inactive: -0.028 | inactive: 0.012 | inactive: -0.016 | inactive: -0.009 | inactive: 0.129 | inactive: 0.013 | inactive: -0.017 | inactive: 0.005 | inactive: 0.01 | inactive: -0.005 | inactive: -0.007 | inactive: -0.001 | inactive: -0.023 | inactive: -0.056 | inactive: -0.006 | inactive: 0.015 | inactive: -0.023 | inactive: -0.017 | inactive: -0.009 | inactive: 0.005
PISD (UniProt Q9UG56) | inactive: 0.038 | inactive: -0.025 | inactive: -0.031 | inactive: -0.099 | inactive: -0.235 | inactive: 0.044 | inactive: -0.055 | inactive: -0.101 | inactive: -0.024 | inactive: -0.039 | inactive: 0 | inactive: -0.016 | inactive: -0.124 | inactive: 0.037 | inactive: 0.032 | inactive: -0.072 | inactive: 0.055 | inactive: -0.086 | inactive: 0 | inactive: -0.092

Look-ups from the entries so far:
log2 fold change (alvocidib) with PIK3C3 (UniProt Q8NEB9) reads inactive: -0.081
log2 fold change (lapatinib) with PITPNB isoform 3 (UniProt P48739) reads inactive: 0.013
